This passage reports binding results from paper PMC5461494.

Chains of the proteins cited; added tags and fusions are not shown.
UniProt Q14676: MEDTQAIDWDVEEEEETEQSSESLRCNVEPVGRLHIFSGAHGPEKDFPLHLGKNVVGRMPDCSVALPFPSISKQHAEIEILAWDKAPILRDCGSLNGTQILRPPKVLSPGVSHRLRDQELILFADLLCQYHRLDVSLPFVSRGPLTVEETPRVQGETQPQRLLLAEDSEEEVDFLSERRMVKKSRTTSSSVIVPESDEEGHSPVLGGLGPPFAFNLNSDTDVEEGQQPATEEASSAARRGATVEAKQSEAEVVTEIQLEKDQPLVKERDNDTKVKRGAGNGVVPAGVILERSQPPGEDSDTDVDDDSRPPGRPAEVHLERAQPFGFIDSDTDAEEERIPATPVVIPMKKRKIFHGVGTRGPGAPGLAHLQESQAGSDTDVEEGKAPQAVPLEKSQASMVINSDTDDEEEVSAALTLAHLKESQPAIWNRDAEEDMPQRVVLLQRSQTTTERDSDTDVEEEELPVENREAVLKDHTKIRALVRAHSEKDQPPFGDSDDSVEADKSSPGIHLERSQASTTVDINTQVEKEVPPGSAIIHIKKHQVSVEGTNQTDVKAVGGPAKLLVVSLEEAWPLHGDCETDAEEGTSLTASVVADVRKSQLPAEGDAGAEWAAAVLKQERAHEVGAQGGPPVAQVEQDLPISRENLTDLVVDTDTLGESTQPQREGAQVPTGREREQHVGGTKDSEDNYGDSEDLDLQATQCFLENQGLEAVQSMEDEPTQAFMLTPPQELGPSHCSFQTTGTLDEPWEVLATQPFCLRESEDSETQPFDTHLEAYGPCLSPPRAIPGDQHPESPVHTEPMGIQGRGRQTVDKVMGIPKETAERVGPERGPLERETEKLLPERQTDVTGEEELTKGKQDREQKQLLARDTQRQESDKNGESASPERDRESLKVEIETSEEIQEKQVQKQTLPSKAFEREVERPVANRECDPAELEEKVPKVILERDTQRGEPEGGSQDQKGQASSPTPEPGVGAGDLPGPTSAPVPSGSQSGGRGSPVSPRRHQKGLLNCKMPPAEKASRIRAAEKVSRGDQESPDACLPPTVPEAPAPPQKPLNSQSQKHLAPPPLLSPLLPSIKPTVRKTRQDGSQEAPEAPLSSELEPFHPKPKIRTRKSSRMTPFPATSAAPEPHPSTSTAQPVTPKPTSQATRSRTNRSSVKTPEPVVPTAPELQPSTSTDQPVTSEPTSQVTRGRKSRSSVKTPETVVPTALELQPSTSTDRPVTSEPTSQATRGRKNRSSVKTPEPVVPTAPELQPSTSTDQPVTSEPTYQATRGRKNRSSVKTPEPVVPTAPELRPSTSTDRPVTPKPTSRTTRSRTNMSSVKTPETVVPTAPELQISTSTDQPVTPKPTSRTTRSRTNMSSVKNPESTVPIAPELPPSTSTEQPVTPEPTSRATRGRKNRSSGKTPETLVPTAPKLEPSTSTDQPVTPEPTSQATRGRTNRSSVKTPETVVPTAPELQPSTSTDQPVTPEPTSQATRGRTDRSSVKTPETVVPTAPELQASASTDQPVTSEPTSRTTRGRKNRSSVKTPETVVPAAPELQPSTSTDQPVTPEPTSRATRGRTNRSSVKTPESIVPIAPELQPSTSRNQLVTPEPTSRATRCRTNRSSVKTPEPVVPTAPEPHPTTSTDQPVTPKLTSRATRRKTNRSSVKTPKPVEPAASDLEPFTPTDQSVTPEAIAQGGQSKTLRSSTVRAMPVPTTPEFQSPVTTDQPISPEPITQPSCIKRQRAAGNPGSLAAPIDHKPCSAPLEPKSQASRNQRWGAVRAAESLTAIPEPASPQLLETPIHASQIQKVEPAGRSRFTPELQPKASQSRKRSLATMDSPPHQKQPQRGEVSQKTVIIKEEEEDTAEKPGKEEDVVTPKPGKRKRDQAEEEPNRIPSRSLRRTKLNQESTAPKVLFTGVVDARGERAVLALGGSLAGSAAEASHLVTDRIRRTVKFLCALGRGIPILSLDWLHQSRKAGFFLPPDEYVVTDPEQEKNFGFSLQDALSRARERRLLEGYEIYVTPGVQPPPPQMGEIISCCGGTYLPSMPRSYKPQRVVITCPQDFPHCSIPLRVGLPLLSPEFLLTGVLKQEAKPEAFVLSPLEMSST

These are yes or no findings as the source states them, for the method shown. In cells and extracts the contact can be indirect. Some binding calls cover weakened binding; strength is not graded here.

Assay [1] deals with T1, USP13 (human (endogenous in EFO-27)) (UniProt Q92995).
T1 sequence: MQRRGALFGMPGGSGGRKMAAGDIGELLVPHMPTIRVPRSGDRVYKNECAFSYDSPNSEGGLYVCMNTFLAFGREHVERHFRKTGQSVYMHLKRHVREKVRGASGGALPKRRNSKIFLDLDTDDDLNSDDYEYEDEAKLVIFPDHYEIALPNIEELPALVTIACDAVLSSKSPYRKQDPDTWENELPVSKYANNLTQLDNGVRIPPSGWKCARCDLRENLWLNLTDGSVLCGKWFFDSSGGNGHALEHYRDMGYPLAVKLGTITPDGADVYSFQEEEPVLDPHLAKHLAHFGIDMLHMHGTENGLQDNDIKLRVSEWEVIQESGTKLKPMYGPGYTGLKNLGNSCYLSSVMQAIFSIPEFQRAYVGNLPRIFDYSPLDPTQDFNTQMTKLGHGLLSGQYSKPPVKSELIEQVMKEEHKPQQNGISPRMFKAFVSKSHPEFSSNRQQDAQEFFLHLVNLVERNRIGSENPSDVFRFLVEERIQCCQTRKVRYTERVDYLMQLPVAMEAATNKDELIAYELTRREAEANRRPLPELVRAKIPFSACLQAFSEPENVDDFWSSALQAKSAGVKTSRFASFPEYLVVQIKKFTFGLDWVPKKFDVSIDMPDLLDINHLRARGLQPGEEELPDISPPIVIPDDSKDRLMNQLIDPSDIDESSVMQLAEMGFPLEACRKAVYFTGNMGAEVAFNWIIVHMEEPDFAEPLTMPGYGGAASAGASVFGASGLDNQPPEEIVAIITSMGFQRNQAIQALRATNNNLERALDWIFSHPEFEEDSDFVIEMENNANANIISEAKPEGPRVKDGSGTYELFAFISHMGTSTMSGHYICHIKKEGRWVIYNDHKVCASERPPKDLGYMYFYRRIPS
The assay can be described thus: co-IP; endogenous proteins, EFO-27 cell lysates (control or USP13 knockout), RAP80 or USP13 antibody or control IgG, NETN buffer, 4 h at 4 °C.

The target in assay [2] is T2, Receptor-associated protein 80 (RAP80) (human (endogenous in EFO-27)) (UniProt Q96RL1).
T2 sequence: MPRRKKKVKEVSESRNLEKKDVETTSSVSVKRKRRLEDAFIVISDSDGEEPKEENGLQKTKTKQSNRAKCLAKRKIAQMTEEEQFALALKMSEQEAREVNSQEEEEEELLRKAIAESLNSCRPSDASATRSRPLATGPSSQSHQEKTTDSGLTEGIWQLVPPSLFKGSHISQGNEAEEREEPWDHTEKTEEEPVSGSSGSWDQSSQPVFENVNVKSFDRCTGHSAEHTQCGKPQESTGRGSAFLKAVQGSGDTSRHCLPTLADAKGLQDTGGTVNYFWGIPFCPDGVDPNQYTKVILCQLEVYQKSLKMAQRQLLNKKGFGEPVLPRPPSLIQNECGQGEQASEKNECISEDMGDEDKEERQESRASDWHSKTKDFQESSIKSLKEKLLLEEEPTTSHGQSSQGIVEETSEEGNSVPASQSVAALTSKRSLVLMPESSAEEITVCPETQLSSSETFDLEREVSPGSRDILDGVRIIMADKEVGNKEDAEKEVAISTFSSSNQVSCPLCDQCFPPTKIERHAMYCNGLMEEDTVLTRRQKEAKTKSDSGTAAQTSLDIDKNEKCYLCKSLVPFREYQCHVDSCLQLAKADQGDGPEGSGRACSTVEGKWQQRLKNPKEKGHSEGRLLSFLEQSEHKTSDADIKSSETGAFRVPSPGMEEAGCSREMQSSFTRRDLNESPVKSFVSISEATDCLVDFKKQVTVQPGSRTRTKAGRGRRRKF
The assay is described as above.

Another assay addresses HA-MDC1 (UniProt Q14676). The assay can be described thus: co-IP; HEK293T cells transfected with HA-MDC1 or its deletion mutants, untreated or treated with cisplatin; immunoprecipitation with HA antibody.

B1: Receptor-associated protein 80 (RAP80) (protein, UniProt Q96RL1 1-719)
chain: MPRRKKKVKEVSESRNLEKKDVETTSSVSVKRKRRLEDAFIVISDSDGEEPKEENGLQKTKTKQSNRAKCLAKRKIAQMTEEEQFALALKMSEQEAREVNSQEEEEEELLRKAIAESLNSCRPSDASATRSRPLATGPSSQSHQEKTTDSGLTEGIWQLVPPSLFKGSHISQGNEAEEREEPWDHTEKTEEEPVSGSSGSWDQSSQPVFENVNVKSFDRCTGHSAEHTQCGKPQESTGRGSAFLKAVQGSGDTSRHCLPTLADAKGLQDTGGTVNYFWGIPFCPDGVDPNQYTKVILCQLEVYQKSLKMAQRQLLNKKGFGEPVLPRPPSLIQNECGQGEQASEKNECISEDMGDEDKEERQESRASDWHSKTKDFQESSIKSLKEKLLLEEEPTTSHGQSSQGIVEETSEEGNSVPASQSVAALTSKRSLVLMPESSAEEITVCPETQLSSSETFDLEREVSPGSRDILDGVRIIMADKEVGNKEDAEKEVAISTFSSSNQVSCPLCDQCFPPTKIERHAMYCNGLMEEDTVLTRRQKEAKTKSDSGTAAQTSLDIDKNEKCYLCKSLVPFREYQCHVDSCLQLAKADQGDGPEGSGRACSTVEGKWQQRLKNPKEKGHSEGRLLSFLEQSEHKTSDADIKSSETGAFRVPSPGMEEAGCSREMQSSFTRRDLNESPVKSFVSISEATDCLVDFKKQVTVQPGSRTRTKAGRGRRRKF
With B1, the binding entry in assay [1] was “binds”.

B2: USP13 (enzyme, UniProt Q92995 1-863)
chain: MQRRGALFGMPGGSGGRKMAAGDIGELLVPHMPTIRVPRSGDRVYKNECAFSYDSPNSEGGLYVCMNTFLAFGREHVERHFRKTGQSVYMHLKRHVREKVRGASGGALPKRRNSKIFLDLDTDDDLNSDDYEYEDEAKLVIFPDHYEIALPNIEELPALVTIACDAVLSSKSPYRKQDPDTWENELPVSKYANNLTQLDNGVRIPPSGWKCARCDLRENLWLNLTDGSVLCGKWFFDSSGGNGHALEHYRDMGYPLAVKLGTITPDGADVYSFQEEEPVLDPHLAKHLAHFGIDMLHMHGTENGLQDNDIKLRVSEWEVIQESGTKLKPMYGPGYTGLKNLGNSCYLSSVMQAIFSIPEFQRAYVGNLPRIFDYSPLDPTQDFNTQMTKLGHGLLSGQYSKPPVKSELIEQVMKEEHKPQQNGISPRMFKAFVSKSHPEFSSNRQQDAQEFFLHLVNLVERNRIGSENPSDVFRFLVEERIQCCQTRKVRYTERVDYLMQLPVAMEAATNKDELIAYELTRREAEANRRPLPELVRAKIPFSACLQAFSEPENVDDFWSSALQAKSAGVKTSRFASFPEYLVVQIKKFTFGLDWVPKKFDVSIDMPDLLDINHLRARGLQPGEEELPDISPPIVIPDDSKDRLMNQLIDPSDIDESSVMQLAEMGFPLEACRKAVYFTGNMGAEVAFNWIIVHMEEPDFAEPLTMPGYGGAASAGASVFGASGLDNQPPEEIVAIITSMGFQRNQAIQALRATNNNLERALDWIFSHPEFEEDSDFVIEMENNANANIISEAKPEGPRVKDGSGTYELFAFISHMGTSTMSGHYICHIKKEGRWVIYNDHKVCASERPPKDLGYMYFYRRIPS
For B2, the binding entry in assay [2] was “binds”.

B3: USP13 (in HEK293T lysate) (enzyme, UniProt Q92995 1-863)
chain: MQRRGALFGMPGGSGGRKMAAGDIGELLVPHMPTIRVPRSGDRVYKNECAFSYDSPNSEGGLYVCMNTFLAFGREHVERHFRKTGQSVYMHLKRHVREKVRGASGGALPKRRNSKIFLDLDTDDDLNSDDYEYEDEAKLVIFPDHYEIALPNIEELPALVTIACDAVLSSKSPYRKQDPDTWENELPVSKYANNLTQLDNGVRIPPSGWKCARCDLRENLWLNLTDGSVLCGKWFFDSSGGNGHALEHYRDMGYPLAVKLGTITPDGADVYSFQEEEPVLDPHLAKHLAHFGIDMLHMHGTENGLQDNDIKLRVSEWEVIQESGTKLKPMYGPGYTGLKNLGNSCYLSSVMQAIFSIPEFQRAYVGNLPRIFDYSPLDPTQDFNTQMTKLGHGLLSGQYSKPPVKSELIEQVMKEEHKPQQNGISPRMFKAFVSKSHPEFSSNRQQDAQEFFLHLVNLVERNRIGSENPSDVFRFLVEERIQCCQTRKVRYTERVDYLMQLPVAMEAATNKDELIAYELTRREAEANRRPLPELVRAKIPFSACLQAFSEPENVDDFWSSALQAKSAGVKTSRFASFPEYLVVQIKKFTFGLDWVPKKFDVSIDMPDLLDINHLRARGLQPGEEELPDISPPIVIPDDSKDRLMNQLIDPSDIDESSVMQLAEMGFPLEACRKAVYFTGNMGAEVAFNWIIVHMEEPDFAEPLTMPGYGGAASAGASVFGASGLDNQPPEEIVAIITSMGFQRNQAIQALRATNNNLERALDWIFSHPEFEEDSDFVIEMENNANANIISEAKPEGPRVKDGSGTYELFAFISHMGTSTMSGHYICHIKKEGRWVIYNDHKVCASERPPKDLGYMYFYRRIPS
Turning to B3, in the assay with HA-MDC1, the binding result is listed as “binds”.
